Reference: paper PMC9913288, “Suppression of Cancer Cell Stemness and Drug Resistance via MYC Destabilization by Deubiquitinase USP45 Inhibition with a Natural Small Molecule” (Cancers, 2023)
Residue numbers refer to the chain shown, from its start. These are yes or no findings as the source states them, for the method shown. For part of these data: Binding seen in cells or lysates may run through a third protein. Some results given as binding are weak or reduced against the parent protein; the word gives no strength. For part of these data: Tags and fused reporters may be left off the sequences shown.

Amino acid sequences for entries named in this document (tags omitted).
UniProt P01106: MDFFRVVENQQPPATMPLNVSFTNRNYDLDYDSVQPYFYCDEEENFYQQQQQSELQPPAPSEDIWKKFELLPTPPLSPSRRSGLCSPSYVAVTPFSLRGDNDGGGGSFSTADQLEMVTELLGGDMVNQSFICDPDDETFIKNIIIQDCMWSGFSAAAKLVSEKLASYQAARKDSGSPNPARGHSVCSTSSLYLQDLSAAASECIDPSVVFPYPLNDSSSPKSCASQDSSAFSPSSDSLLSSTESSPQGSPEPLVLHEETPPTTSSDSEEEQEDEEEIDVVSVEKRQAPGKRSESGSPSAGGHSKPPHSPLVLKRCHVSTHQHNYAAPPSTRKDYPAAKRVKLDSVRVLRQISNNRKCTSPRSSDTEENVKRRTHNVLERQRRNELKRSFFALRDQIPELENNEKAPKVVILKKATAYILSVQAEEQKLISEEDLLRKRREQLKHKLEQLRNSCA

Tests used:
USP45-His = target: T1, USP45-His (UniProt Q70EL2); experiment: pull-down; USP45 purified from E. coli and MYC purified from HEK293T cells incubated together, followed by pulling down; bait not stated; both purified
T1 sequence: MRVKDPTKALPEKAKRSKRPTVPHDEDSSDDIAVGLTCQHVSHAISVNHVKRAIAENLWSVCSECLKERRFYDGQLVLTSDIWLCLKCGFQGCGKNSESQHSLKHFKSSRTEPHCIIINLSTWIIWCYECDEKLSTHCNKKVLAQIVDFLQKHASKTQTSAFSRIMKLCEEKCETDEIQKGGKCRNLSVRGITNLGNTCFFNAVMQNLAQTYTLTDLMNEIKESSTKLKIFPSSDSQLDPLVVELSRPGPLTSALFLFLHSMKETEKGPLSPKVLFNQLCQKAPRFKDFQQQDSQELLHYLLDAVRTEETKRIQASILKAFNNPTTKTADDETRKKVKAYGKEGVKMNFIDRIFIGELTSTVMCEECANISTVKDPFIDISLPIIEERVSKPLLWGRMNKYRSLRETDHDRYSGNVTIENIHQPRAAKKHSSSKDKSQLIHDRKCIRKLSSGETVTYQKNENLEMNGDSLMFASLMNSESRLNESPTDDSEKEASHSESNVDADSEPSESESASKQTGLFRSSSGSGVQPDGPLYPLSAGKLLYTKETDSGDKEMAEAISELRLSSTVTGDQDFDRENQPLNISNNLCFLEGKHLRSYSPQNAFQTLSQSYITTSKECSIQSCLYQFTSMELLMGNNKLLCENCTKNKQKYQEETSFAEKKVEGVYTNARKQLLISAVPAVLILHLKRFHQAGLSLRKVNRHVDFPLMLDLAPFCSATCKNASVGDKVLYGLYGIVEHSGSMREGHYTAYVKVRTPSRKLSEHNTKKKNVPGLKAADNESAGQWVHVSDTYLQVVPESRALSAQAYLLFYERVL

[1] = target: T2, C-terminal domain of USP45 (190-814 domain), USP45-Flag deletion mutant (UniProt Q70EL2); experiment: co-IP; HEK293T cells transfected with MYC-HA and USP45-Flag (WT or deletion mutants); IP with anti-Flag (also anti-HA in Figure 2A); plvx-puro vector as negative control
T2 sequence: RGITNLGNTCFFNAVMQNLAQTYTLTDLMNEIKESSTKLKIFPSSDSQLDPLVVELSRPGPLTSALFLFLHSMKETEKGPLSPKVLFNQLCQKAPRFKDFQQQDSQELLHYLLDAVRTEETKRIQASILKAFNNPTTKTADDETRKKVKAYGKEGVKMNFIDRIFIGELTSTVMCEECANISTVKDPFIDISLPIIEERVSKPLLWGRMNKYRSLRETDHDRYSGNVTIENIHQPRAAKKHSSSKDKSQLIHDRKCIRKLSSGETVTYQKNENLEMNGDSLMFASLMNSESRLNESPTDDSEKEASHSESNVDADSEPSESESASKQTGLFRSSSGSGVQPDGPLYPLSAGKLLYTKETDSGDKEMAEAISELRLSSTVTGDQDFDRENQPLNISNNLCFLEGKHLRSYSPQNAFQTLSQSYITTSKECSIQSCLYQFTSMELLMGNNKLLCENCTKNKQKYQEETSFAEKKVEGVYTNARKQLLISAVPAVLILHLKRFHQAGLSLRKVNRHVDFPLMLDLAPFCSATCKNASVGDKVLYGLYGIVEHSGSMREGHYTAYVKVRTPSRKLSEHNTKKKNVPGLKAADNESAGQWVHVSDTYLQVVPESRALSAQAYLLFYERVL

USP45-Flag [2] = target: T3, USP45-Flag (UniProt Q70EL2); experiment: as above
T3 sequence: T1 sequence

USP45-Flag [3] = target: T3, USP45-Flag; experiment: co-IP; HEK293T cells transfected with USP45-Flag (WT or C199A); IP with anti-Flag, control IgG or plvx-puro vector as control; endogenous MYC detected
USP45-Flag C199A = target: T4, USP45-Flag C199A (UniProt Q70EL2); experiment: as above
T4 sequence: T1 sequence with C199A

[4] = target: endogenous MYC (human (endogenous in HEK293T)) (UniProt P01106); experiment: co-IP; HEK293T cell lysate, endogenous proteins; IP with anti-MYC and control IgG

Molecule: MYC purified from HEK293T cells (from UniProt P01106 1-454)
- binding (USP45-His): binds

Molecule: MYC-HA (from UniProt P01106 1-454)
- binding [1]: binds
- binding (USP45-Flag [2]): binds

Molecule: endogenous MYC (from UniProt P01106 1-454)
- binding (USP45-Flag [3]): binds
- binding (USP45-Flag C199A): binds

B1: endogenous USP45 (enzyme, UniProt Q70EL2 1-814)
chain: T1 sequence
- binding [4]: binds
